Experimental data reported in US20260007697A1 (FUNDACI N PARA LA INVESTIGACI N M DICA APLICADA, published 2026).
These are yes or no findings as the source states them, for the method shown. Some results given as binding are weak or reduced against the parent protein; the word gives no strength.

Chains of the proteins cited; added tags and fusions are not shown. Lines headed by an entry give the natural chain unless they say otherwise; changes in a name come on top.
UniProt P11276: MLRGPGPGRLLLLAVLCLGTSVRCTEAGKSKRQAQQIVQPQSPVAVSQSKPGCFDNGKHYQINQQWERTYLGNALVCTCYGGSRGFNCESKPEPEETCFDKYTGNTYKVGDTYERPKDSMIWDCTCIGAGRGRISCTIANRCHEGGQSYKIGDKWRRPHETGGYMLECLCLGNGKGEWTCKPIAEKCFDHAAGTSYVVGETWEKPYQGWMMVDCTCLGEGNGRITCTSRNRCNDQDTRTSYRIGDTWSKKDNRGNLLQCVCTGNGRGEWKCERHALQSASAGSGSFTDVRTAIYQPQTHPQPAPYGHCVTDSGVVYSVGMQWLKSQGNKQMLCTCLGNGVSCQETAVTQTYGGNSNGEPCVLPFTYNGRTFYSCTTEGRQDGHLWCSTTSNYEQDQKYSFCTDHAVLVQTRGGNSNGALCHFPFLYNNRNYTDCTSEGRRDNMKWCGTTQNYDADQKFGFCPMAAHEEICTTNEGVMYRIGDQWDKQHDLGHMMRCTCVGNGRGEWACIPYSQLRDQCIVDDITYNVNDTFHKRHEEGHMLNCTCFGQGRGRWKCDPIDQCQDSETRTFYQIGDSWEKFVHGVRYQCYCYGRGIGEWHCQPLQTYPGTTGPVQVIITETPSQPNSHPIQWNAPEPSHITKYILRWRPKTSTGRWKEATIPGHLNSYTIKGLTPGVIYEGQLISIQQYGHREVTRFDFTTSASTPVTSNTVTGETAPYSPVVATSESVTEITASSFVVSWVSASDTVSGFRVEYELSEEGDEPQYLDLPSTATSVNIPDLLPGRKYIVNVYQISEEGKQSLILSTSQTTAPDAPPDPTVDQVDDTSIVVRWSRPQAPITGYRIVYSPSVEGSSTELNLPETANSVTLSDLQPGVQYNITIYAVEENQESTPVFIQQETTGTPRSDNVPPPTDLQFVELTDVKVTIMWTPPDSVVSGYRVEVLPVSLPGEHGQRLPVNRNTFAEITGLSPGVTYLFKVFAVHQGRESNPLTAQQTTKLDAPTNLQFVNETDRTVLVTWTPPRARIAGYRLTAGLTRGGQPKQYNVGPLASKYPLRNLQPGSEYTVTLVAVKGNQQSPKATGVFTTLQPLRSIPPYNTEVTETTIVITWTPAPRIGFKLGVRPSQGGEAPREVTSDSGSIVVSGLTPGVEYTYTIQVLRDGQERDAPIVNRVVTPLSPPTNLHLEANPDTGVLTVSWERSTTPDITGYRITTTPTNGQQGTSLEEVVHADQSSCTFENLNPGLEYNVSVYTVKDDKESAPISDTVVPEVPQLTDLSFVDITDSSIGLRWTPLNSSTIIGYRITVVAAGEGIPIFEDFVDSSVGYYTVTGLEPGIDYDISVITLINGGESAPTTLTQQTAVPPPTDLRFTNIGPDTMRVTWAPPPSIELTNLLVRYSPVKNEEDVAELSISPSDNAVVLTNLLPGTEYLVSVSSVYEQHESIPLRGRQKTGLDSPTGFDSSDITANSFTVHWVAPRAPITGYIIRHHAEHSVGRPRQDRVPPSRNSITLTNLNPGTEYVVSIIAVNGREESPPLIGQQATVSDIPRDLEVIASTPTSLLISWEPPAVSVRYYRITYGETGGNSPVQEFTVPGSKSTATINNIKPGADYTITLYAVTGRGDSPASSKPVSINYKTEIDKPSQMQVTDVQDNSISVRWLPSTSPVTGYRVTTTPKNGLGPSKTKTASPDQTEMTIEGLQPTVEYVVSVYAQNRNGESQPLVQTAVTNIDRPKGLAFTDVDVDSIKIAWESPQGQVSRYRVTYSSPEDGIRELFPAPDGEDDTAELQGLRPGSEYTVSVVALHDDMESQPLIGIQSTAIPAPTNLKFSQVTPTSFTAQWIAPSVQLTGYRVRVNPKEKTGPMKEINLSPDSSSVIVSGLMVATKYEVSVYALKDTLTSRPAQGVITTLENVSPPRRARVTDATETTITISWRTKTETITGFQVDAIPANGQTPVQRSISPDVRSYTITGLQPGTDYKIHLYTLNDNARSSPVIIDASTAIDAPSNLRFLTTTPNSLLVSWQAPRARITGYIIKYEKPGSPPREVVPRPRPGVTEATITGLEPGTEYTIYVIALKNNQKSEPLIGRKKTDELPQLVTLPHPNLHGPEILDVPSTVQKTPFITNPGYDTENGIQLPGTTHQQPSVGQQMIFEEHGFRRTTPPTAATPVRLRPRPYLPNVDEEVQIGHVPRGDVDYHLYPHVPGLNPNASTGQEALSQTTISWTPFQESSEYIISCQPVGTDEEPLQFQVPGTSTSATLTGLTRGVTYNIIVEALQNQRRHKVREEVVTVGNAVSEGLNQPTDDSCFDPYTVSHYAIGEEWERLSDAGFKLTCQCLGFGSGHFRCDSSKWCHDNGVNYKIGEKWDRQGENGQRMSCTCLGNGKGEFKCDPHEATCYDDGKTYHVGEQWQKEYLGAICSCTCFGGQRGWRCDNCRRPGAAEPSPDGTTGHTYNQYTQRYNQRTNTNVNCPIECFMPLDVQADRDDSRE
UniProt P02751: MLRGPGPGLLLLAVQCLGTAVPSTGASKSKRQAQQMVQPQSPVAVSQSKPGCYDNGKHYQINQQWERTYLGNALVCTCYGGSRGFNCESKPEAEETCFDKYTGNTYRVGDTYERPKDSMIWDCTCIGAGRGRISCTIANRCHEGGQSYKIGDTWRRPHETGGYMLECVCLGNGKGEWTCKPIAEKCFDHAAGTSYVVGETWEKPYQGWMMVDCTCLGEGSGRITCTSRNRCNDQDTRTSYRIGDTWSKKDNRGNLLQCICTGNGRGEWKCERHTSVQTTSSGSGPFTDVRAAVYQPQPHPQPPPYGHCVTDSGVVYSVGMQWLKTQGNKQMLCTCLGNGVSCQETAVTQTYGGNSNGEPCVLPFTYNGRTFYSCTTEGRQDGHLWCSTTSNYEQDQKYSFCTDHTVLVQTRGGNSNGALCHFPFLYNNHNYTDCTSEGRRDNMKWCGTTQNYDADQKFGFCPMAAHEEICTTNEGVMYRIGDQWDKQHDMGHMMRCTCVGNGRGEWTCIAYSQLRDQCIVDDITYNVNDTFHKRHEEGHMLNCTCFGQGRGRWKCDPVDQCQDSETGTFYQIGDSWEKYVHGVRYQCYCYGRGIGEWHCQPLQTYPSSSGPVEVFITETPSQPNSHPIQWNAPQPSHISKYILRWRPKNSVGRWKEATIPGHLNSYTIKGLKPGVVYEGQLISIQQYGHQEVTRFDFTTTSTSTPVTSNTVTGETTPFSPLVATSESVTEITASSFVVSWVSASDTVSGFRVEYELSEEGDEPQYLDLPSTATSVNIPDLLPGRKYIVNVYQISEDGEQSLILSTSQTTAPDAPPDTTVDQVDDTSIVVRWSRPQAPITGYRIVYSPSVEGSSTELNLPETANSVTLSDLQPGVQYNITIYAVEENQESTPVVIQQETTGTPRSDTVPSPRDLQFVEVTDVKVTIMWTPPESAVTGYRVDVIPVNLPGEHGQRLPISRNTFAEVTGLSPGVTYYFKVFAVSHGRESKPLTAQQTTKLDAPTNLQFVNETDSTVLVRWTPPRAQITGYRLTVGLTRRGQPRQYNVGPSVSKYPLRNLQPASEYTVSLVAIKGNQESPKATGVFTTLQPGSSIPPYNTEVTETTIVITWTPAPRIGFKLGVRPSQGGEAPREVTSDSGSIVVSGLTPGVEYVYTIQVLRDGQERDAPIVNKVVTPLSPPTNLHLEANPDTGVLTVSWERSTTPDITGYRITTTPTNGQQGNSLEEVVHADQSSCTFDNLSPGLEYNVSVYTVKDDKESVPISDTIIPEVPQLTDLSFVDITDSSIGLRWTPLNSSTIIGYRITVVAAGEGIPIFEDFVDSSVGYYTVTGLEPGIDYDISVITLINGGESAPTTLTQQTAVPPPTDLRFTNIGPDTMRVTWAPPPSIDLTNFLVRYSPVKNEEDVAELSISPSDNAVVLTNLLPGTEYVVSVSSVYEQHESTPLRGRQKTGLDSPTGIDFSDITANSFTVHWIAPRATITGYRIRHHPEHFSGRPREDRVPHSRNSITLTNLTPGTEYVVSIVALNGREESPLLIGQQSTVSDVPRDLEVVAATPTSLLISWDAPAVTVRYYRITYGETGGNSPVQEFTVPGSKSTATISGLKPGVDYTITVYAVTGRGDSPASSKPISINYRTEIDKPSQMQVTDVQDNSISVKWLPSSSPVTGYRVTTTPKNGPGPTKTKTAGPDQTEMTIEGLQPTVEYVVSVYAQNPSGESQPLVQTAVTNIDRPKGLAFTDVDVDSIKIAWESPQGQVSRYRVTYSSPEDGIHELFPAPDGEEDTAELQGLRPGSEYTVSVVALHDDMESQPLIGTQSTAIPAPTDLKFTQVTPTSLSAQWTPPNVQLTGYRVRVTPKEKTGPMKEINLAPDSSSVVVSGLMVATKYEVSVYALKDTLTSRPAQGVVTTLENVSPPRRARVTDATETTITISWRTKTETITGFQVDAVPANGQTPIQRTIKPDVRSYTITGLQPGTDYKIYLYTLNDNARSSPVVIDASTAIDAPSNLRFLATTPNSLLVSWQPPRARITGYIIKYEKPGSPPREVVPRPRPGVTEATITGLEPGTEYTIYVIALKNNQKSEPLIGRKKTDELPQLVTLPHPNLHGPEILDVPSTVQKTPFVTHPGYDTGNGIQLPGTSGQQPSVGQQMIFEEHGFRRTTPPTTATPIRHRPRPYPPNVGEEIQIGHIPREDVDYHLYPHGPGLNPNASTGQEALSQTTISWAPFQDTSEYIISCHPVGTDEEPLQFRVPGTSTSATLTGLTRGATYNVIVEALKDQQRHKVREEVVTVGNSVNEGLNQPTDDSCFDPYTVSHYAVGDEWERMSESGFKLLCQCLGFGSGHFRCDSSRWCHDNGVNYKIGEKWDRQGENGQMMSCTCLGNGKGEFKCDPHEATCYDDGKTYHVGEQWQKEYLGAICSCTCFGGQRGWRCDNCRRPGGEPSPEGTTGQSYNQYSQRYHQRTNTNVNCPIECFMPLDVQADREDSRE

Key:
[1] = molecular target: recombinant mouse EDA protein (extra-domain A of fibronectin), His-tagged (mouse) (UniProt P11276); test: ELISA, EDA coated to plates
[2] = molecular target: recombinant human EDA protein (extra-domain A of fibronectin), His-tagged (human) (UniProt P02751); test: ELISA, plates coated with human EDA, detection with scFv F8
[3] = molecular target: recombinant mouse EDA protein (extra-domain A of fibronectin), His-tagged (mouse) (UniProt P11276); test: ELISA, plates coated with mouse EDA, detection with scFv F8
[4] = molecular target: recombinant human EDA protein (extra-domain A of fibronectin), His-tagged (human) (UniProt P02751); test: told in words at the start of Example 2; no assay named in this sentence
[5] = molecular target: recombinant mouse EDA protein (extra-domain A of fibronectin), His-tagged (mouse) (UniProt P11276); test: as above
[6] = molecular target: recombinant human EDA protein (extra-domain A of fibronectin), His-tagged (human) (UniProt P02751); test: ELISA, EDA coated to plates (human EDA recognized less well than murine EDA)
[7] = molecular target: recombinant human EDA protein (extra-domain A of fibronectin), His-tagged (human) (UniProt P02751); test: ELISA titration, plates coated with 0 to 5 µg/ml human EDA (axis µg/ml EDAr), detection with scFv F8
[8] = molecular target: recombinant mouse EDA protein (extra-domain A of fibronectin), His-tagged (mouse) (UniProt P11276); test: ELISA titration, plates coated with 0 to 5 µg/ml mouse EDA (axis µg/ml EDAr), detection with scFv F8

Measured: binding

B1: anti-EDA F8 scFv (purified recombinant antibody fragment) (scFv)
scFv: EVQLLESGGGLVQPGGSLRLSCAASGFTFSVMKMSWVRQAPGKGLEWVSAISGSGGSTYYADSVKGRFTISRDNSKNTLYLQMNSLRAEDTAVYYCAKSTHLYLFDYWGQGTLVTVSSGGGGSGGGGSGGGGSGGGGSEIVLTQSPGTLSLSPGERATLSCRASQSVSNAFLAWYQQKPGQAPRLLIYGASSRATGIPDRFSGSGSGTDFTLTISRLEPEDFAVYYCQQMRGRPPTFGQGTKVEIKHHHHHH
notes: Expressed in E. coli BL21(DE3) from pET20b and purified on protein A Sepharose; also called scFv F8; scFv (F8)
binds: all assays above
